Source: paper PMC4492587
Results are given in words; binding and its absence hold for the method and conditions named. In cells and extracts the contact can be indirect. Some results given as binding are weak or reduced against the parent protein; the word gives no strength. Tags and fused reporters may be left off the sequences shown.

Protein sequences, listed by entry. Tags and fused reporters are not part of them. Residues count along the entry.
UniProt P17147: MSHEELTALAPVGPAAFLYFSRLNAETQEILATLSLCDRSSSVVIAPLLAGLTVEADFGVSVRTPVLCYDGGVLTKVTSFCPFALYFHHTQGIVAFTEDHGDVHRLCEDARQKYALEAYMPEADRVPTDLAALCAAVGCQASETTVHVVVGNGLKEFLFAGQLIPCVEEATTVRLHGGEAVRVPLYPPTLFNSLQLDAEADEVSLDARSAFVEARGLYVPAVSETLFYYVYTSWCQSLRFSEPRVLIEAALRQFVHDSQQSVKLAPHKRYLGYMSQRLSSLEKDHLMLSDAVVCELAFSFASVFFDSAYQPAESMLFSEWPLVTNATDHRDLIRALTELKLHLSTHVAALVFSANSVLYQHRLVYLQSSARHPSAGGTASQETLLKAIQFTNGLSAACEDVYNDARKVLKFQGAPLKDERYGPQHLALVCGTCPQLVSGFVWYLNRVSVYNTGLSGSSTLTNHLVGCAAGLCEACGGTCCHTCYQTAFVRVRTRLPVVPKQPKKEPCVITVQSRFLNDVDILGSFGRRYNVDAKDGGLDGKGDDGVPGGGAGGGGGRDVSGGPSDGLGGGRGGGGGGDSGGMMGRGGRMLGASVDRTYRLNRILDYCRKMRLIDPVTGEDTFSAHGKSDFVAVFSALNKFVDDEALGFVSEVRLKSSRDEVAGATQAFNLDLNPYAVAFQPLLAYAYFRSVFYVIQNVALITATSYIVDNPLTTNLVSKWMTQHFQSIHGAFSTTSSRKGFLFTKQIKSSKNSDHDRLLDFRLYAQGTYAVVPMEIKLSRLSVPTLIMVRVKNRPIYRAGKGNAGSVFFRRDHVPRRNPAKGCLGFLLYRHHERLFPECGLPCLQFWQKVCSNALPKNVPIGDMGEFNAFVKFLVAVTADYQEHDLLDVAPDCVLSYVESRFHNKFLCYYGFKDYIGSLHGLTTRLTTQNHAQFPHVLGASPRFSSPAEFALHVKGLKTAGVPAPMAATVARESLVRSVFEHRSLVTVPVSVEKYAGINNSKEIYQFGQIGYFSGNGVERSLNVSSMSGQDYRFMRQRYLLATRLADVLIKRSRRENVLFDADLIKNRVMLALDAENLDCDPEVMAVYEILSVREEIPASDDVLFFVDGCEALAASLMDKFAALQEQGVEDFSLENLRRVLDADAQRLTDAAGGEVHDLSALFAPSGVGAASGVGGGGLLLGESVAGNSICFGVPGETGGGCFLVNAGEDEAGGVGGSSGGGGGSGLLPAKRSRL
UniProt P06473, residues 32-906: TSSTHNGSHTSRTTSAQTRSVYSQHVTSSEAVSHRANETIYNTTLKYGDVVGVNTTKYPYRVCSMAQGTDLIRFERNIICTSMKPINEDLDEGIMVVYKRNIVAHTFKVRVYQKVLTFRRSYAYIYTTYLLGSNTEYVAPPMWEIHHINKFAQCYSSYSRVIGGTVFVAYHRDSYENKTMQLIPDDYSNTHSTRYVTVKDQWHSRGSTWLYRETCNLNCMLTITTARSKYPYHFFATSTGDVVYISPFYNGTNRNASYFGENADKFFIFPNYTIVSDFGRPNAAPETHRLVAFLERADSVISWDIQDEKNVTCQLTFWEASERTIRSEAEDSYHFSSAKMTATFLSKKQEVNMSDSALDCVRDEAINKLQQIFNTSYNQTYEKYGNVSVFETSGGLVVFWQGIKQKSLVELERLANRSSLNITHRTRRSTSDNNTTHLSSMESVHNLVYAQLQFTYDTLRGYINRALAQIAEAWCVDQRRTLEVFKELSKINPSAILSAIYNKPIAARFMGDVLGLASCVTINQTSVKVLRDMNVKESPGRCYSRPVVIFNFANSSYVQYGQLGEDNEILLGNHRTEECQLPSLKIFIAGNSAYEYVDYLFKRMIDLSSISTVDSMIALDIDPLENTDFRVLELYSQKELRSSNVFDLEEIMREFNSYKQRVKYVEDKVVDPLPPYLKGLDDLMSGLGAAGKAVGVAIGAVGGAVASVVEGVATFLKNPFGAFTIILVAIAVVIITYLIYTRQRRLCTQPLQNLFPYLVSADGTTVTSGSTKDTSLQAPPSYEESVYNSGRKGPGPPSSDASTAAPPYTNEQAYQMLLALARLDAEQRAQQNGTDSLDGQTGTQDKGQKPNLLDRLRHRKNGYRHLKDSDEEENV

Biological target: T1, soluble THY-1-His protein (a.a. 20-130) (UniProt P04216)
T1 sequence: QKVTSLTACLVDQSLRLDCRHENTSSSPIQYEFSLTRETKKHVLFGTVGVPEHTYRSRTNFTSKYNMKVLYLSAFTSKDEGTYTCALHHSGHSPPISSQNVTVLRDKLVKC
Test: pull-down; THY-1-His or control VZV gE-His bound to Ni-NTA or Talon columns; HCMV-infected cell lysate (PBS with 0.1% NP-40, or 25 mM Tris, 15 mM NaCl and 0.1% NP-40) incubated at 4°C overnight; washed with PBS, eluted with 250 mM imidazole, immunoblotted; only the target purified

| Substance | binding |
| --- | --- |
| HCMV ICP8 (135 kD), from MRC-5 cells infected with HCMV AD169 (from UniProt P17147 1-1235) | no binding |
| HCMV gB, full length (160 kD), from HCMV-infected cell lysate (from UniProt P06473 32-906) | binds |
